Measured values published in US10563263B2, “Genetic polymorphisms associated with statin response and cardiovascular diseases, methods of detection and uses thereof” (CELERA CORPORATION, priority 2010, dated 2020).
Further values from the same series stand in other lists.

System: CHD
Assay: Meta-analysis of CARE and WOSCOPS combined, synergy index, CHD endpoint
Type: in vivo, human
Text: Tables 4-5 provide meta-analyses of CARE and WOSCOPS combined (2nd section of each table) for two endpoints (CHD and CVD) and three genetic models (dominant, recessive, and additive), as well as logistic regression analyses of CARE (3rd section of each table) and WOSCOPS (4th section of each table) individually.
Tables 12 and 17 provide results of meta-analysis of the CARE and WOSCOPS sample sets combined by direct genotyping and by imputing genotypes.
“P” indicates the p-value, and “P(R)” (or “P.R.”) indicates the p-value random effect. Both of these are p-values corresponding to a statistical test of whether the combined synergy index is equal to one but use different assumptions to derive the p-value. “P” is calculated using a fixed effects model, and “P(R)” is calculated using a random effects model.
“OR” indicates the odds ratio (synergy index) calculated from a fixed effects model, and “OR(R)” (or “OR.R.”) indicates the odds ratio (synergy index) calculated from a random effects model.

[1] = rs10021016 allele G GENOTYPIC Genotyped
[2] = rs10116807 allele A RECESSIVE Imputed
[3] = rs10121941 allele C DOMINANT Imputed
[4] = rs10128638 allele G DOMINANT Genotyped
[5] = rs10183431 allele T DOMINANT Imputed
[6] = rs10195401 allele C DOMINANT Imputed
[7] = rs10239416 allele A DOMINANT Imputed
[8] = rs10468988 allele G ADDITIVE Imputed
[9] = rs10478919 allele G DOMINANT Imputed
[10] = rs10506623 allele C DOMINANT Imputed
[11] = rs10506626 allele A DOMINANT Imputed
[12] = rs10509477 allele T DOMINANT Imputed
[13] = rs10511071 allele C DOMINANT Imputed
[14] = rs10511072 allele G DOMINANT Imputed
[15] = rs10511199 allele C ADDITIVE Imputed
[16] = rs10513283 allele G GENOTYPIC Imputed
[17] = rs10520072 allele T DOMINANT Imputed
[18] = rs10733846 allele G ADDITIVE Imputed
[19] = rs10733846 allele G DOMINANT Imputed
[20] = rs10737390 allele T DOMINANT Imputed
[21] = rs10749293 allele G DOMINANT Imputed
[22] = rs10752159 allele G DOMINANT Imputed
[23] = rs10753760 allele T ADDITIVE Imputed
[24] = rs10753760 allele T GENOTYPIC Imputed
[25] = rs10757887 allele C DOMINANT Imputed
[26] = rs10758326 allele A ADDITIVE Imputed
[27] = rs10758326 allele A GENOTYPIC Imputed
[28] = rs10758326 allele A RECESSIVE Imputed
[29] = rs10762236 allele G ADDITIVE Genotyped
[30] = rs10765769 allele C ADDITIVE Imputed
[31] = rs10765769 allele C GENOTYPIC Imputed
[32] = rs10784891 allele C ADDITIVE Imputed
[33] = rs10784891 allele C DOMINANT Imputed
[34] = rs10787923 allele G DOMINANT Imputed
[35] = rs10787949 allele A DOMINANT Imputed
[36] = rs10787951 allele G DOMINANT Imputed
[37] = rs10787983 allele C DOMINANT Imputed
[38] = rs10788380 allele C ADDITIVE Imputed
[39] = rs10788380 allele C DOMINANT Imputed
[40] = rs10788380 allele C GENOTYPIC Imputed
[41] = rs10814418 allele G DOMINANT Imputed
[42] = rs10831417 allele A ADDITIVE Imputed

SMILES: CC[C@H](C)C(=O)O[C@H]1C[C@H](O)C=C2C=C[C@H](C)[C@H](CC[C@@H](O)C[C@@H](O)CC(=O)O)[C@H]21 [Pravastatin, pravastatin]
- OR (rs9881685 allele A DOMINANT Imputed, P 4.29E−06): 0.4876
- OR(R) (rs9881685 allele A DOMINANT Imputed, P(R) 4.29E−06): 0.4876
- Meta-analysis OR (rs9896077 allele G vs A (ref)): 0.66
- OR (rs9936999 allele G DOMINANT Imputed, P 8.52E−05): 1.8486
- OR(R) (rs9936999 allele G DOMINANT Imputed, P(R) 8.52E−05): 1.8486
- OR [1]: 2.2715
- OR(R) [1]: 2.2715
- Meta-analysis OR (rs10106852, A1 (non-ref) G, A2 (ref) A): 1.64
- OR [2]: 3.0277
- OR(R) [2]: 3.0277
- OR [3]: 0.5093
- OR(R) [3]: 0.5093
- OR [4]: 0.6023
- OR(R) [4]: 0.6023
- Meta-analysis OR (rs10155047 allele A vs G (ref)): 0.55
- OR [5]: 1.6438
- OR(R) [5]: 1.6438
- OR [6]: 1.679
- OR(R) [6]: 1.679
- OR [7]: 0.5939
- OR(R) [7]: 0.5939
- Meta-analysis OR (rs10305439 allele A vs C (ref)): 0.62
- Meta-analysis OR (rs10429616 allele G vs A (ref)): 1.85
- Meta-analysis OR (rs10444402 allele G vs A (ref)): 0.69
- Meta-analysis OR (rs10460737, A1 (non-ref) A, A2 (ref) G): 0.24
- OR [8]: 1.5305
- OR(R) [8]: 1.5305
- OR [9]: 0.5722
- OR(R) [9]: 0.5722
- Meta-analysis OR (rs10494924 allele C vs A (ref)): 0.64
- OR [10]: 0.6039
- OR(R) [10]: 0.6039
- OR [11]: 0.5722
- OR(R) [11]: 0.5722
- OR [12]: 1.6135
- OR(R) [12]: 1.6135
- OR [13]: 1.9326
- OR(R) [13]: 1.9381
- OR [14]: 1.9326
- OR(R) [14]: 1.9381
- OR [15]: 1.5246
- OR(R) [15]: 1.5246
- OR [16]: 3.6142
- OR(R) [16]: 3.6142
- OR [17]: 0.5759
- OR(R) [17]: 0.5759
- OR [18]: 0.5881
- OR(R) [18]: 0.5881
- OR [19]: 0.5809
- OR(R) [19]: 0.5809
- OR [20]: 0.5929
- OR(R) [20]: 0.5929
- OR [21]: 1.6321
- OR(R) [21]: 1.6316
- OR [22]: 1.5856
- OR(R) [22]: 1.5961
- OR [23]: 1.4355
- OR(R) [23]: 1.4355
- OR [24]: 2.1142
- OR(R) [24]: 2.1142
- OR [25]: 0.604
- OR(R) [25]: 0.604
- OR [26]: 0.7335
- OR(R) [26]: 0.7335
- OR [27]: 0.5194
- OR(R) [27]: 0.5194
- OR [28]: 0.603
- OR(R) [28]: 0.603
- OR [29]: 0.6093
- OR(R) [29]: 0.6093
- OR [30]: 1.474
- OR(R) [30]: 1.474
- OR [31]: 2.1499
- OR(R) [31]: 2.1499
- OR [32]: 0.711
- OR(R) [32]: 0.711
- OR [33]: 0.5722
- OR(R) [33]: 0.5722
- OR [34]: 1.6581
- OR(R) [34]: 1.6522
- OR [35]: 1.6068
- OR(R) [35]: 1.5927
- OR [36]: 1.6068
- OR(R) [36]: 1.5927
- OR [37]: 1.6153
- OR(R) [37]: 1.6079
- OR [38]: 1.3678
- OR(R) [38]: 1.3678
- OR [39]: 1.7138
- OR(R) [39]: 1.7138
- OR [40]: 1.8999
- OR(R) [40]: 1.8999
- OR [41]: 0.5119
- OR(R) [41]: 0.5119
- Meta-analysis OR (rs10817479, A1 (non-ref) A, A2 (ref) G): 1.66
- OR [42]: 1.4929
- OR(R) [42]: 1.4929
- OR (rs10831417 allele A GENOTYPIC Imputed): 2.3097
